# Data taken from PubChem BioAssay AID540256 (National Center for Advancing Translational Sciences (NCATS), 2011).
# “And” between values parts separate entries of the source, which are not always exact repeats. Identical values can stand only once. The campaign covered roughly 300,000 compounds. About 3,700 (1.2%) were called active. The inconclusive results got no clear call from the source; some entries with a clear call stand among them for comparison. Calls come from the whole dose curve; tested in HEK293 cells. Potencies beside an inconclusive call are fits to weak or partial responses and may not hold up.
# Assay: qHTS for Inhibitors of binding or entry into cells for Lassa Virus; note: nearly all actives have a fitted effect of over 50% in size
# Settings: Lassa virus pseudotype entry inhibition, cell reporter; series mostly up to 37.9 µM
# Potency is the fitted concentration of half-maximal effect.
row,SMILES,Potency
1,CCC(C)c1ccc(NC(=S)NCc2ccccc2OC)cc1 (stereo unspecified),"inconclusive: 14.1 µM [inhibitor, partial curve, poor fit]"
2,COc1ccc(-c2cc(=NC(CC(C)C)C(=O)O)c3cc(C)ccc3o2)cc1 (stereo unspecified),"inconclusive: 13 µM [inhibitor, single point]"
3,O=C(CSc1nnc(-c2c[nH]c3ccccc23)o1)N1c2ccccc2CCc2ccccc21,"inconclusive: 18.3 µM [inhibitor, partial curve, poor fit]"
4,Cc1ccc(Oc2ccc(S(=O)(=O)N3CCOCC3)cc2C(N)=O)cc1C,"inconclusive: 7.08 µM [inhibitor, partial curve, poor fit]"
5,COc1ccc(CN(Cc2cccnc2)S(=O)(=O)c2ccc(-n3cnnn3)c(OC)c2)cc1,"inconclusive: 35.5 µM [inhibitor, single point]"
6,CCOc1ccc2nc(NCCNC(=O)Nc3ccccc3)c(C#N)cc2c1,"inconclusive: 29.1 µM [inhibitor, single point]"
7,CC(C)(C)NC(=O)C(c1ccc(F)cc1)N(Cc1ccco1)C(=O)CCC(=O)Nc1nccs1 (stereo unspecified),"inconclusive: 11.2 µM [activator, single point]"
8,Cc1ccc(NC(=O)CSc2nnc(-c3ccncc3)o2)cc1C,"inconclusive: 5.62 µM [activator, partial curve, poor fit]"
9,CCOc1ccc(N2CCc3c(C)nc(SC)nc32)cc1,"inconclusive: 6.31 µM [inhibitor, full curve, poor fit]"
10,COc1ccccc1NC(=O)C1CCN(S(=O)(=O)c2ccc3c(c2)CC(C)N3C(C)=O)CC1 (stereo unspecified),inactive
11,Cc1ccc(O)c(NC(=O)c2noc3c2CCCC3)c1,"inconclusive: 2.82 µM [inhibitor, single point]"
12,O=C(CN1C(=O)COc2ccc(S(=O)(=O)N3CCCC3)cc21)N1CCN(c2ccc(Cl)cc2)CC1,inactive
13,Cc1ccc2c(c1)N(S(=O)(=O)c1cc(-c3onc(C)c3C)ccc1C)CCO2,"inconclusive: 35.5 µM [inhibitor, single point] and inconclusive: 6.31 µM [inhibitor, full curve, poor fit]"
14,Cc1cccc(NC(=S)Nc2cccc3ccccc23)c1,inactive
15,O=C(CNc1cccc([N+](=O)[O-])c1)N/N=C/c1ccc([N+](=O)[O-])o1,"inconclusive: 6.31 µM [inhibitor, partial curve, poor fit]"
16,O=C1c2[nH]nc(-c3ccccc3O)c2C(c2cccc(O)c2)N1Cc1ccncc1 (stereo unspecified),"inconclusive: 3.98 µM [inhibitor, partial curve, poor fit]"
